We go through 34 molecules from PubChem BioAssay AID1487 (National Center for Advancing Translational Sciences (NCATS), 2009).

By AC50 is commonly meant the concentration giving half of the maximal activity seen.

Some of the results follow. Shown are side measurements of this screen, not its main read-out; they come without a call. Compounds called inactive in the main read-out are mostly missing here. Potencies come from curve fits of mixed quality, noted in brackets.

A short description of the assay: qHTS Assay for Modulators of Lamin A Splicing. The settings on record: HeLa LMNA splicing GFP/RFP minigene ratio, 48 h. In short, it runs like this:
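S3 HeLa cells stably expressing lamin A-EGFP splicing minigene plus DsRed2, 600 cells/well, 48 h compound exposure at 37C. Laser-scanning cytometry; analysed as GFP (500-530 nm)/RFP (575-640 nm) total intensity ratio; 0.5% DMSO vehicle.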
A general note: In qHTS, concentration-response curves come from the screen itself.

Where [1] appears, read: measured here: GFP splicing reporter channel.
The mark [2] stands for this setting: measured here: RFP viability control channel.

`CC(=O)Nc1ccc(N=C(C2=C(O)c3ccccc3C2=O)c2ccccc2)cc1`: the AC50 by setting is: under setting [1], 35.5 µM [falling, single point]; under setting [2], 12.6 µM [rising, single point].

With `CCCC(=O)c1ccc(N2CCN(C(=O)OCC)CC2)c(F)c1`, under setting [1], the AC50 is 12.6 µM [rising, single point].

As to `Cc1cccc(N2CCN(C(=O)C3CCN(S(=O)(=O)c4cccc5cccnc45)CC3)CC2C)c1` (centres undefined), the AC50 under setting [2] was 15.8 µM [rising, single point].

As to `CC(C)Cn1c(SCC(=O)N2CCc3ccccc3C2)nc2cc(Cl)ccc2c1=O`, the AC50 reads like this: under setting [1], 10 µM [rising, partial curve]; under setting [2], 25.1 µM [rising, partial curve].

Regarding `C=C(C)C1CC[C@]2(CO)CC[C@@]3(C)[C@H](CCC4[C@@]5(C)CCC(O)C(C)(C)C5CC[C@@]43C)C12` (some centres undefined), the AC50 under setting [2] was 14.1 µM [falling, partial curve].

For `COc1ccc(C2=NN(C3=NN=C(N)Cc4ncnn43)C(O)(C(F)(F)F)C2)cc1` (centres undefined), the AC50 by setting is: under setting [1], 0.02 µM [falling, full curve, poor fit]; under setting [2], 0.0447 µM [falling, full curve, poor fit].

Consider `COc1ccc(OC)c(NC(=O)c2nc(-c3ccccc3)oc2C)c1`, for which the AC50 was 0.316 µM [rising, partial curve] under setting [1] and 0.631 µM [rising, partial curve] under setting [2].

In the case of `Cc1ccc(-c2cc(C(=O)N3CCCc4ccccc43)no2)cc1`, the AC50 under setting [2] was 17.8 µM [falling, single point].

`Cc1csc(NC(=O)c2cc3c(s2)CCCC3)n1`: the AC50 is 12.6 µM [rising, partial curve] under setting [1] and 12.6 µM [rising, partial curve] under setting [2].

Consider `COc1ccc(S(=O)(=O)Nc2ccc(Cl)cn2)c(C)c1C`, for which the AC50 under setting [2] was 12.6 µM [rising, partial curve, poor fit].

For `O=C(NCCc1ccc(Cl)cc1)Nc1cccc(Cl)c1`, under setting [2], the half-maximal activity concentration (AC50) was 0.316 µM [falling, partial curve, poor fit].

For `COc1ccccc1-c1cc(C(F)(F)F)nc(S(=O)(=O)CCCC(=O)N2CCOCC2)n1`, the AC50 was 22.4 µM [falling, single point] under setting [1] and 12.6 µM [falling, single point] under setting [2].

Take `Cc1c(Cl)cccc1NC(=O)C1CCN(S(C)(=O)=O)CC1`: the AC50 reads like this: under setting [1], 0.316 µM [rising, full curve, poor fit]; under setting [2], 0.00316 µM [rising, full curve, poor fit].

For the molecule `O=C(c1ccc(Cl)cc1)N1CCC(c2ccncc2)CC1`, under setting [1], the half-maximal activity concentration (AC50) was 0.891 µM [falling, full curve].

In the case of `Cc1cc(C)n(-c2cc(N3CCN(C(=O)c4ccc(C(C)(C)C)cc4)CC3)ccc2[N+](=O)[O-])n1`, the AC50 under setting [1] is 35.5 µM [falling, single point].

As for `Cc1cccc(NC(=S)N2CCN(c3cc(C)ccc3C)CC2)c1`, the AC50 reads like this: under setting [1], 17.8 µM [rising, single point]; under setting [2], 35.5 µM [rising, single point].

Take `c1nc(NCCN2CCOCC2)c2c3c(sc2n1)CCCCC3`: the AC50 under setting [2] is 11.2 µM [rising, single point].

In the case of `CC(C)(C)c1ccc(S(=O)(=O)NCc2ccc3c(c2)CCN3C(=O)c2ccccc2)cc1`, the AC50 is, setting by setting: under setting [1], 35.5 µM [falling, single point]; under setting [2], 35.5 µM [falling, single point].

For the molecule `Fc1ccccc1N1CCN(c2cnc3ccccc3n2)CC1`, the AC50 is 15.8 µM [rising, partial curve] under setting [1] and 22.4 µM [rising, partial curve] under setting [2].

Consider `COc1cccc(-c2nc(NCc3cccnc3)c3ccccc3n2)c1`, for which the AC50 under setting [1] was 12.6 µM [falling, single point] and the AC50 under setting [2] is 14.1 µM [falling, single point].

Turning to `CN(c1ccc(C(=O)NCCSCc2ccccc2)cc1)S(=O)(=O)c1ccccc1`, the AC50 by setting is: under setting [1], 12.6 µM [rising, partial curve]; under setting [2], 22.4 µM [rising, single point].

Regarding `CC(C)NC(=O)NC(=O)COC(=O)c1cccc(OC(F)F)c1`, under setting [2], the AC50 was 0.282 µM [falling, full curve].

For the molecule `COc1ccc(N2CCN(c3oc(-c4ccc(OC)c(OC)c4)nc3C#N)CC2)cc1`, the AC50 under setting [2] was 20 µM [rising, single point].

For the molecule `Cc1ccc(NC(=O)CSc2nnc(COc3ccc(C#N)cc3)n2-c2ccccc2)cc1C`, the AC50 under setting [2] was 22.4 µM [rising, partial curve].

With `COc1ccc(C(=O)OCc2cc(=O)n3nc(-c4cccs4)sc3n2)cc1`, under setting [2], the AC50 was 0.355 µM [falling, full curve, poor fit].

As for `CCOC(=O)c1c(NC(=O)CSc2c[nH]c3ccccc23)sc2c1CCC2`, the concentration at half-maximal activity (AC50) reads like this: under setting [1], 35.5 µM [rising, single point]; under setting [2], 35.5 µM [rising, single point].

As for `CCC(=O)Nc1cccc(NC(=O)c2cccc([N+](=O)[O-])c2C)c1`, under setting [2], the concentration at half-maximal activity (AC50) is 35.5 µM [rising, partial curve, poor fit].

Take `CCOc1ccccc1NC(=S)NC1CCCCC1`: the concentration at half-maximal activity (AC50) under setting [2] is 20 µM [rising, single point].

For `CSc1sc(C(=O)NC(=O)NCc2cccnc2)c(C)c1-c1ccon1`, the AC50 under setting [1] was 0.158 µM [rising, full curve, poor fit].

Consider `CN(C)C(=O)c1ccc(-c2nc(Nc3ccc(F)cc3)c3ccccc3n2)cc1`, for which the AC50 is 35.5 µM [falling, single point] under setting [1] and 35.5 µM [falling, single point] under setting [2].

For `CN(C)P(=NC(=O)COc1ccc(Cl)cc1Cl)(N(C)C)N(C)C`, the AC50 runs as follows: under setting [1], 12.6 µM [rising, partial curve]; under setting [2], 17.8 µM [rising, partial curve].

`CCOc1ccc(NC(C)C(=O)N/N=C/c2ccc([N+](=O)[O-])cc2)cc1` (centres undefined): under setting [1], the AC50 is 6.31 µM [falling, partial curve, poor fit].

As to `COCc1c(C(=O)OC/C(O)=C(\C#N)c2nc3ccccc3[nH]2)oc2ccccc12`, under setting [1], the AC50 is 0.0447 µM [falling, full curve, poor fit].

Take `N#Cc1ccc(C(=O)NC2CCCc3ccccc32)cc1` (centres undefined): under setting [2], the AC50 is 35.5 µM [falling, partial curve].
